Results of single-concentration screens

From ChEMBL document CHEMBL3988442, “University of Dundee, Small-Polar-MMV Screening Library” (2021).

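Cell assay of Leishmania donovani living inside macrophages; the read-out is not stated. Tested at 30 µM. The record gives no direction; compounds that gave an IC50 in retests scored well above the rest, so higher reads as stronger inhibition. Of about 69,000 compounds tested this way, about 1,000 (1.5%) reached 50% or more in at least one test.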

Results are given as percent effect.
The record does not define 0% and 100%; most values in the screen are far below 50% and negative numbers occur (in some assays of this library far below -100).
Compounds were drawn at random from those tested, without regard to their results.
Two or more numbers in one place are separate tests of the same structure; such repeats can differ widely.

Compound	effect
CS(=O)(=O)c1cccc2c1CCCN2C(=O)Cc1cccc(F)c1	-4.287%
CN(Cc1noc(C2CC2)n1)C1CCN(CC(=O)N2CCOCC2)C1 (centres unmarked)	0.07579%
CCCN(CC(=O)NC)C(=O)c1ccc(-c2nc(C)cs2)cc1	37%
Cc1cc(C)n(C2CCCN(C(=O)c3ccn(C)c(=O)c3)C2)n1 (centres unmarked)	-6.769%
OCCNc1cc(-c2ccncc2)ncn1	-14.52% and 7.953%
CS(=O)(=O)CCC(=O)NC1(c2cccc(C(F)(F)F)c2)CCC1	9.262%
[H][C@]12CCCC[C@]1([H])N(C(=O)N1CCN(C)CC1)CC[C@@]2(O)c1ccccc1	30.28%
O=C(COc1ccccc1C(F)(F)F)NCCNC(=O)c1ccccc1	8.526%
COc1cccc(CN2CCN(Cc3ccc4nonc4c3)CC2=O)c1	5.848%
OC(CN1CCN(CCOCC(F)(F)F)CC1)c1ccccc1 (centres unmarked)	1.658%
CCCC1(CO)CCCN(C(=O)CNC(N)=O)C1 (centres unmarked)	41.2%
O=C(NCC1CCC2(CC1)OCCO2)c1ccncc1F	-21.07%
Cc1ccc(Cc2sc(NC(=O)C(C)S(C)(=O)=O)nc2C)cc1 (centres unmarked)	11.55%
Cc1cc(CN(CC(N)=O)CC(C)C)on1	34.94%
CCN(Cc1ccc2c(c1)OCO2)C(=O)NCc1nc(C)cs1	11.4%
Cn1cc(CNC2CCc3ncnn3C2)c(-c2cccnc2)n1 (centres unmarked)	19.24%
COc1nn(C)c2c1CCCN(S(=O)(=O)c1cccs1)C2	-14.11%
O=C(NC1CC1)C(c1ccccc1)N1CCN(Cc2ccc(Cl)s2)CC1 (centres unmarked)	-39.35%
Clc1ccc(CN2CCCCC2Cn2cncn2)c2ncccc12 (centres unmarked)	32.85%
CCC(CC)n1nc(C)cc1NC(=O)CC1CCOCC1	23.85%
Cc1cnn(CCNCc2ccc(OCC(N)=O)cc2)c1	4.265%
[H][C@@]12C[C@@H](OCc3ccccc3)C[C@]1([H])CN(CC(=O)N1CCOCC1)C2	35.13%
CC(C)n1cc(S(=O)(=O)N2CCSCC2)cn1	-24.95%
Cc1ccc(Br)cc1S(=O)(=O)NCCc1nnc[nH]1	-1.035%
c1ccc(CCCN2CCN(c3ccc4nncn4n3)CC2)cc1	0.931%
CCc1ccc(NC(=O)C2OC(c3cccs3)=NN2C(C)=O)cc1 (centres unmarked)	-34.62%
CCOc1ccc(CN2CC[C@@](C)(O)[C@@H](Cc3ccccc3)C2)cn1	21.43%
Cc1nc2n(n1)CC(NCC(=O)NCCCOC(C)C)CC2 (centres unmarked)	22.48%
Cc1ncsc1CCN(C)C(=O)CN1CCOC1=O	-6.538%
CC(C)CCC(=O)NC(C#N)CC(C)C (centres unmarked)	18.18%
Cc1cc(CNC(=O)c2cc(COc3cncc(Cl)c3)on2)n[nH]1	-3.877%
CCc1n[nH]c(C2CN(C(=O)CCCn3cccn3)CCO2)n1 (centres unmarked)	42.61%
Cc1cc(C)nc(Nc2cc(C3CCCN(C)C3)nc(C)n2)n1.O=CO (centres unmarked)	-6.973%
CC(=O)NCCNC(=O)c1ccc(C)c(-n2cccc2)c1	12.8%
Cc1cc(NC(=O)N(C)CCN2CCN(c3ccccc3)CC2)on1	31.17%
CNC(=O)COc1ccccc1CNC1CCc2nc(C)nn2C1 (centres unmarked)	13.5%
O=C1CC(c2ccccc2)c2snc(C(=O)O)c2N1 (centres unmarked)	-3.552%
Cc1nc(N(C)C)nc2c1COCC21CCN(CC2CC2)C1.O=C(O)C(F)(F)F (centres unmarked)	5.536%
Cc1cc(F)cc(S(=O)(=O)Nc2ccn(CCCC#N)n2)c1	7.462% and 29.2%
Cc1c[nH]nc1C1CCN(C(=O)C2CCOCC2)C1 (centres unmarked)	-3.336%
N#Cc1cccc(CN2C[C@@H](F)[C@@H](OCc3nc4cnccc4[nH]3)C2)c1	-6.996%
COc1cc(Br)c(CNC2CCCNC2=O)cc1OC.Cl (centres unmarked)	9.36%
O=C(O)C(F)(F)F.[H][C@@]12COC[C@]1([H])[C@@H](OCC(=O)N(C)C)CN2Cc1ccc2c(c1)OCO2	10.2%
Cc1cc2n(n1)CC(CNCc1ccc(N3CCOCC3)nc1)CN2 (centres unmarked)	26.97%
CNS(=O)(=O)CC1CCCN1c1ccccn1 (centres unmarked)	42.3%
[H][C@]12CC[C@]([H])(CN(C(=O)c3ccncc3)C1)N(C(=O)C1CCCC1)C2	10.72%
O=C(CCCOc1ccccc1F)NCCCC(=O)Nc1cn[nH]c1	-8.9%
O=C(CCC(=O)N1CCc2ccccc2C1)c1cccs1	0.4488%
O=C(CC1CCCO1)Nc1cccc(N2CCN(CC3CC3)CC2)c1 (centres unmarked)	32%
CCCc1cc(NC(=O)c2cc(N3CCNC3=O)c(F)cc2F)n[nH]1	-81.8%
COc1ccc(-c2n[nH]cc2CN(C)CCC2CCOCC2)cc1F	9.226%
Cc1cc(S(=O)(=O)N2CCCc3cc(Cl)ccc32)sc1C(=O)O	0.8279%
Cc1ccc2c(c1)CCCN2C(=O)c1cncc(Br)c1	20.45%
COc1cccc2c1OCCCN(c1nc(C)nc3c1CCNCC3)C2	23.05%
Cc1cc2[nH]c(=O)c(=O)[nH]c2cc1S(=O)(=O)NC1CCCCC1	4.835%
c1ccc(Cn2cccn2)c(CN2CCCCC2CCn2ccnc2)c1 (centres unmarked)	-40.86%

For reference, 3 entries once more:

* N#Cc1cccc(CN2C[C@@H](F)[C@@H](OCc3nc4cnccc4[nH]3)C2)c1 | -6.996%
* Cc1cc(C)n(C2CCCN(C(=O)c3ccn(C)c(=O)c3)C2)n1 (centres unmarked) | -6.769%
* CC(C)n1cc(S(=O)(=O)N2CCSCC2)cn1 | -24.95%